Where two headings read alike, the source gives them in different places. Results are given in words; binding and its absence hold for the method and conditions named. In cells and extracts the contact can be indirect. These calls come from enrichment with a bait or labelling near it, and not all partners need be listed.
T1: SMYD1 (endogenous, mouse heart) (mouse (endogenous in embryonic and adult hearts)) (UniProt P97443)
T1 sequence: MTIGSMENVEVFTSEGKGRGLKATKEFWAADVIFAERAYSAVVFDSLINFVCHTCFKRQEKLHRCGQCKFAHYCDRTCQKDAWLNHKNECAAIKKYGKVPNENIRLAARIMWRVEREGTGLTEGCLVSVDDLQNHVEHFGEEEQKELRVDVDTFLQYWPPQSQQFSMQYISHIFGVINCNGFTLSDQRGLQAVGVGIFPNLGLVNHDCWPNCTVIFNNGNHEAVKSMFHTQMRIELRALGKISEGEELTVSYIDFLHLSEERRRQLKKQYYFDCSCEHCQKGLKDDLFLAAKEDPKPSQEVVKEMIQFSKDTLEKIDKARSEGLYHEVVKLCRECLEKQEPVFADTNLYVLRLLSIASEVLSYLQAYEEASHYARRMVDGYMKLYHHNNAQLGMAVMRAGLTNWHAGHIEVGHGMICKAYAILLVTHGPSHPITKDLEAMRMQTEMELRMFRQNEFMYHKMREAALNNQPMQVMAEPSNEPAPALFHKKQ

By UniProt entry, the sequences of proteins in these tests, tags left out.
UniProt Q6PDQ2: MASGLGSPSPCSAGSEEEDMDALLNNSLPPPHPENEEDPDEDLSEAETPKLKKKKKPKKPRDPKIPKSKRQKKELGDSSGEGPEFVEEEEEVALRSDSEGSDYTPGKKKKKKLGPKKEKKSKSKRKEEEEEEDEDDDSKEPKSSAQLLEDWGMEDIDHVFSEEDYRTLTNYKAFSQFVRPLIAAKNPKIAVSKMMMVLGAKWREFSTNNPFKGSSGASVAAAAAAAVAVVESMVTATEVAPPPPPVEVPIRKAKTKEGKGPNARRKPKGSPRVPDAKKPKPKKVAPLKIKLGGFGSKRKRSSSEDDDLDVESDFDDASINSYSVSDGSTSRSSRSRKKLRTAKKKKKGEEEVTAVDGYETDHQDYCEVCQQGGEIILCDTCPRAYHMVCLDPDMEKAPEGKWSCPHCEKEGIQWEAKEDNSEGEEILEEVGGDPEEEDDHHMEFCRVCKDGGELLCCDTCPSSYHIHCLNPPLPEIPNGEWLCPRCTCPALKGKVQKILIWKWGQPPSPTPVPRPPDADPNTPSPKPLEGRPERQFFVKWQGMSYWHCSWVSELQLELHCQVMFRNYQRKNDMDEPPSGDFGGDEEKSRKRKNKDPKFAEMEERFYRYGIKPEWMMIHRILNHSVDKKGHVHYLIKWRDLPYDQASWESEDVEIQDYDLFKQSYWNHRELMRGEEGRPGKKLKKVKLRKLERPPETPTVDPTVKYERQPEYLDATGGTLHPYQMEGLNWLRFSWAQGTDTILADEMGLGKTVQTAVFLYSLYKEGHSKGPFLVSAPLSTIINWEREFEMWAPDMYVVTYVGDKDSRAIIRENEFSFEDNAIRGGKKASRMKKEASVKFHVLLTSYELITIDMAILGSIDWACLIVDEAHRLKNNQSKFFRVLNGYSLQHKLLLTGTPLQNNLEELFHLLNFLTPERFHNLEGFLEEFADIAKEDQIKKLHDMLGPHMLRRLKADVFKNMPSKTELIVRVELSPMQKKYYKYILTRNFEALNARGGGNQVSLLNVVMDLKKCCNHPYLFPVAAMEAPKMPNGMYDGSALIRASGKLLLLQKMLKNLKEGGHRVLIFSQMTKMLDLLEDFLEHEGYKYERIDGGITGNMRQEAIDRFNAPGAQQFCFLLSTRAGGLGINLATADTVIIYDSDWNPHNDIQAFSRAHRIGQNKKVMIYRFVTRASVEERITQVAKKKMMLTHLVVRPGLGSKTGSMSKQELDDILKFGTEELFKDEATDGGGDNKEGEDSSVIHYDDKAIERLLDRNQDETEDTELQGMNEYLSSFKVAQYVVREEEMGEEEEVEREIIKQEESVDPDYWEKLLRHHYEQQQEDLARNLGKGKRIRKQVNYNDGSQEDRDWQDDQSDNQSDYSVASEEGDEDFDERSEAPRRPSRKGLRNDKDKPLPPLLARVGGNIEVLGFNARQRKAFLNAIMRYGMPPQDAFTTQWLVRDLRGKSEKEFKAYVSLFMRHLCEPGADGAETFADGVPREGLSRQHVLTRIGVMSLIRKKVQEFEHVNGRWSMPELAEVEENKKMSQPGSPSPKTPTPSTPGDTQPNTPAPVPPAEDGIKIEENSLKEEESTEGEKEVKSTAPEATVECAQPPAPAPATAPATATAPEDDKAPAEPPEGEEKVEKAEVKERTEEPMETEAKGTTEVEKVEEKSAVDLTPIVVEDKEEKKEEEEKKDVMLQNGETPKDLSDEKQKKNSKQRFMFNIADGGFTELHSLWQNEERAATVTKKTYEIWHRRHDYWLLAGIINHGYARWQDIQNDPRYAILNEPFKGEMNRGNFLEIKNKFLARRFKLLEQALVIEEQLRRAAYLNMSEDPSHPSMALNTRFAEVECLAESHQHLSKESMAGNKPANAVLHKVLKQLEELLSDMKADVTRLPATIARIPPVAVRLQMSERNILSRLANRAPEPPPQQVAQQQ
UniProt Q61881: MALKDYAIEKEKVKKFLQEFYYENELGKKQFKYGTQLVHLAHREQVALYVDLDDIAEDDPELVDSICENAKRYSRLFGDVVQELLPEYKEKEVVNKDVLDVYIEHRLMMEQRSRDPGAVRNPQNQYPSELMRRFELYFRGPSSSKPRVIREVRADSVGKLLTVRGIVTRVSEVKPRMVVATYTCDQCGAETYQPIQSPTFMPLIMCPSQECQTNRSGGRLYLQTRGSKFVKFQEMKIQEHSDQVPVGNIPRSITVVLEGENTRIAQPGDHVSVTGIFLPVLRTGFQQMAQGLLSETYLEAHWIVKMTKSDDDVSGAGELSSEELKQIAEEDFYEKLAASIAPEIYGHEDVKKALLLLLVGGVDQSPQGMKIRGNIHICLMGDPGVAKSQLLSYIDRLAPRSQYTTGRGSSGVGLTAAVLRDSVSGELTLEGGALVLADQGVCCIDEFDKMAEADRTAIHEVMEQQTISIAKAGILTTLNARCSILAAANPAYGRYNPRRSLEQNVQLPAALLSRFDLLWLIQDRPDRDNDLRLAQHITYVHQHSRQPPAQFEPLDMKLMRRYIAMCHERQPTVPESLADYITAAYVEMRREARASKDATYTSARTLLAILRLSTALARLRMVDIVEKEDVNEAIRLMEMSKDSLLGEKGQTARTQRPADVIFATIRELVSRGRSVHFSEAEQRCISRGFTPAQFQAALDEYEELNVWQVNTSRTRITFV
UniProt Q924K8: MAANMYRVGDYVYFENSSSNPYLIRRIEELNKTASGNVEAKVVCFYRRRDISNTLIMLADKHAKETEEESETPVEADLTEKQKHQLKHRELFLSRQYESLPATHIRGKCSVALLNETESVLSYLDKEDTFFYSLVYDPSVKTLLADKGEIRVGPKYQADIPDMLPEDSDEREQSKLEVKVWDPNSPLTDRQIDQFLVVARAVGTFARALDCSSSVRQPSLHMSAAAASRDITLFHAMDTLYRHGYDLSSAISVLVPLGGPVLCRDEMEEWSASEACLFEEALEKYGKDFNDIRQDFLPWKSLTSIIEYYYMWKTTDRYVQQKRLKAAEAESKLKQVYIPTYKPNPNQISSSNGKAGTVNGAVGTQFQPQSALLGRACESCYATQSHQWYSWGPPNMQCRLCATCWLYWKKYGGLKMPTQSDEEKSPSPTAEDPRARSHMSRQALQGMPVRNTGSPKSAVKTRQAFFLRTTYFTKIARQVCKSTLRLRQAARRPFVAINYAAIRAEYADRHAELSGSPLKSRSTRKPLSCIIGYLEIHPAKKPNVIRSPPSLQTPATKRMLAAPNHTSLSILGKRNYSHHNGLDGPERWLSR
UniProt Q9EP97: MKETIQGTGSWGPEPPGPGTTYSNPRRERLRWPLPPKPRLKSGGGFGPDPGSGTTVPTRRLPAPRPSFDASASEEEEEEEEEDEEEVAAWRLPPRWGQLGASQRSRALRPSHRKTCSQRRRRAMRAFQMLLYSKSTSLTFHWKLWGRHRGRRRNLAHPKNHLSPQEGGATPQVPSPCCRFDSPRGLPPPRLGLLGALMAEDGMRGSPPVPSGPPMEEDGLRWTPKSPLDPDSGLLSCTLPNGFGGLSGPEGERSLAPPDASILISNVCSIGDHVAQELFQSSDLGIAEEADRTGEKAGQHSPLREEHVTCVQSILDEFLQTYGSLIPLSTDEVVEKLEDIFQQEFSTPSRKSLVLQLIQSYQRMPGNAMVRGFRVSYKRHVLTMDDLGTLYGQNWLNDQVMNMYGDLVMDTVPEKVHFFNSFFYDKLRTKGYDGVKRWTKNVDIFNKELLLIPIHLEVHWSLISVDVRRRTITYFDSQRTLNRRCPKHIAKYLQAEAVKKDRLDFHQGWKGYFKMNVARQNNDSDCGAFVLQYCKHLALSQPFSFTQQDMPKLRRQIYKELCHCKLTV
UniProt Q3TKT4: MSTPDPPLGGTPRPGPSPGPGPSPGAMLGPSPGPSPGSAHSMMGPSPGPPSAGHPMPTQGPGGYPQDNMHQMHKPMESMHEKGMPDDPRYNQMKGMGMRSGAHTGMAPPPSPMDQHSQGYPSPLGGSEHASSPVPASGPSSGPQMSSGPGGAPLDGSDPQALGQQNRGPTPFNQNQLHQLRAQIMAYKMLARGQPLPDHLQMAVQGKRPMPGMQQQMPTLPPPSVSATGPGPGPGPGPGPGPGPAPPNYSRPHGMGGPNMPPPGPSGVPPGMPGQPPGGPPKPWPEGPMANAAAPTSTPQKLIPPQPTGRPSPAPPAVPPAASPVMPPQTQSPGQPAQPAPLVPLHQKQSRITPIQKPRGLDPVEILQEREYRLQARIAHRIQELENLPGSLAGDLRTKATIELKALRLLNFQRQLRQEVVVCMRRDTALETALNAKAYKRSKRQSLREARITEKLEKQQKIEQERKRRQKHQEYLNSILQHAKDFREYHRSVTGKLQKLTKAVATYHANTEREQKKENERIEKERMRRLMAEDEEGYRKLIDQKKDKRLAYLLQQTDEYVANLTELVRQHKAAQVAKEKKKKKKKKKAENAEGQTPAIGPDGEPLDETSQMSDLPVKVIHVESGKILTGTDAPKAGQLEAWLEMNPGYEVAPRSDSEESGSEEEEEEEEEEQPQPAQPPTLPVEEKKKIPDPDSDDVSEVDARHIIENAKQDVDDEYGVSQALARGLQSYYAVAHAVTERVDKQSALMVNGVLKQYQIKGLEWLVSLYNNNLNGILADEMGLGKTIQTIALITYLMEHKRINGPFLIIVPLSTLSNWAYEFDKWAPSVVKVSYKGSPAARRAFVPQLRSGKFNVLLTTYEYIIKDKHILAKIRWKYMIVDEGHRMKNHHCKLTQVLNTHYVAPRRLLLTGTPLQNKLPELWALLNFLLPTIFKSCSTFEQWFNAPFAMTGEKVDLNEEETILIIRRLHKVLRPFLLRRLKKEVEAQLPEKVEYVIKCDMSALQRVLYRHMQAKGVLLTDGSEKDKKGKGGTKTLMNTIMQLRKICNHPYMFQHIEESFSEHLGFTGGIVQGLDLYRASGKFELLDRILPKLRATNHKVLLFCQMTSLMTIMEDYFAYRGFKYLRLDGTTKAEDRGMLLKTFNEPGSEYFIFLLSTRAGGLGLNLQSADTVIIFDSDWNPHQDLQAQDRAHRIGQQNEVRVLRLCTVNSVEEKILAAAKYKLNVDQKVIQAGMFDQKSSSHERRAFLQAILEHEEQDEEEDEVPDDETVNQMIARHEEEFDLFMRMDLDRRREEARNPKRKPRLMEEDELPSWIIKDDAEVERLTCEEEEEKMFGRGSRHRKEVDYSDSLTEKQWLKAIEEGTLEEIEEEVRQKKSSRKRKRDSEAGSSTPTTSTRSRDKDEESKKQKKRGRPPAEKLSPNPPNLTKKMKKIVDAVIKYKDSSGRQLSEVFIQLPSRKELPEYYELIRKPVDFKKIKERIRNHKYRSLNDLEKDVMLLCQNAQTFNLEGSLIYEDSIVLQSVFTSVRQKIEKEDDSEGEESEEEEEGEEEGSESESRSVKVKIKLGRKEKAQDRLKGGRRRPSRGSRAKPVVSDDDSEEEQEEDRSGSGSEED
UniProt O09106: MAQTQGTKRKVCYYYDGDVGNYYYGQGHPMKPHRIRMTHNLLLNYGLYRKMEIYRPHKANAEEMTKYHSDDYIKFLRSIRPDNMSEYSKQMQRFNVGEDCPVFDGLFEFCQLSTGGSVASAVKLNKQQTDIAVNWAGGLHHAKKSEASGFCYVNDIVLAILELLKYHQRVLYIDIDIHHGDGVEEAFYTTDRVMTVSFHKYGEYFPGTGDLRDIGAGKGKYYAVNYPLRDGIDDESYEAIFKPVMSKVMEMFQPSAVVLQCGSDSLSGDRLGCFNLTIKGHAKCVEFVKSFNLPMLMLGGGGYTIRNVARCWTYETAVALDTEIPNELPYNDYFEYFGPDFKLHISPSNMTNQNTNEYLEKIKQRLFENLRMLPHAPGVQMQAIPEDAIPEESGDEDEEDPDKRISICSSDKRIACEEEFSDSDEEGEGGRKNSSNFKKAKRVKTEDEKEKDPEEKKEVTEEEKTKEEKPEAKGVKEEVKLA
UniProt Q8VHR5: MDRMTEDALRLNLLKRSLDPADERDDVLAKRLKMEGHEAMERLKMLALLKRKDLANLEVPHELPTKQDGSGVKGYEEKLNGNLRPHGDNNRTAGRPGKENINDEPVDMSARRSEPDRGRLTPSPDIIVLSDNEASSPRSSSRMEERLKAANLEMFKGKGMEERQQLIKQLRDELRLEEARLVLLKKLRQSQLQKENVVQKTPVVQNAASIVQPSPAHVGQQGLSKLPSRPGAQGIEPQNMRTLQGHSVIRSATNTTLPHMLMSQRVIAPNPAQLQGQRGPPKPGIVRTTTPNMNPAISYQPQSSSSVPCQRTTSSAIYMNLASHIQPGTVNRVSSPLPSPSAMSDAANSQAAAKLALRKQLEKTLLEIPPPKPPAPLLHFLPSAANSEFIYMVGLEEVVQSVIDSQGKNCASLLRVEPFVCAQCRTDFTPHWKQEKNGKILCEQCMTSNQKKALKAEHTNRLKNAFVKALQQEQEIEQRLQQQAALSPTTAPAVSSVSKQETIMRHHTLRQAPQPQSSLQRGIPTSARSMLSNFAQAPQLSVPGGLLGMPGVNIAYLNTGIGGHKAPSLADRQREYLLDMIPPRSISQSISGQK


Experiments:
[1] = target: CHD4 (endogenous, mouse heart) (mouse (endogenous in embryonic and adult hearts)) (UniProt Q6PDQ2); test: affinity purification with mass spectrometry; IP of endogenous CHD4 (rabbit anti-CHD4 on magnetic beads) from cardiac nuclei of E10.5 mouse embryonic hearts; IgG control; nLC-MS/MS
[2] = target: T1, SMYD1 (endogenous, mouse heart) (mouse (endogenous in embryonic and adult hearts)); test: affinity purification with mass spectrometry; IP of endogenous SMYD1 (rabbit anti-SMYD1 on magnetic beads) from cardiac nuclei of E9.5 mouse embryonic hearts; MS/MS
[3] = target: CHD4 (endogenous, mouse heart) (mouse (endogenous in embryonic and adult hearts)) (UniProt Q6PDQ2); test: affinity purification with mass spectrometry; IP of endogenous CHD4 (rabbit anti-CHD4 on magnetic beads) from cardiac nuclei of E10.5 mouse embryonic hearts; IgG control; nLC-MS/MS; remark: listed apart in the source

binding [1]	binding [2]	binding [3]	Molecule
binds	binds	–	MTA2 (from UniProt Q9R190 1-668)
–	binds	–	HDAC2 (from UniProt P70288 1-488)
binds	binds	–	RBBP5 (from UniProt Q8BX09 1-538)
binds	binds	–	MCM7 (from UniProt Q61881 1-719)
–	binds	–	GATAD2A (from UniProt Q8CHY6 1-629)
binds	binds	–	MTA3 (from UniProt Q924K8 1-591)
binds	binds	–	SENP3 (from UniProt Q9EP97 1-568)
–	binds	–	SMARCA4 (from UniProt Q3TKT4 1-1613)
binds	binds	–	MTA1 (from UniProt Q8K4B0 1-715)
–	binds	–	HDAC1 (from UniProt O09106 1-482)
binds	binds	–	PELP1 (from UniProt Q9DBD5 1-1123)
binds	binds	–	CSNK2A1 (from UniProt Q60737 1-391)
–	binds	–	GATAD2B (from UniProt Q8VHR5 1-594)
–	binds	binds	MCM6 (protein, UniProt P97311 1-821) MDLAAAAEPGAGSQHPEVRDEVAEKCQKLFLDFLEEFQGSDGEIKYLQFAEELIRPERNTLVVSFADLEQFNQQLSTTIQEEFYRVYPYLCRALKTFVKDRKEIPFAKDFYVAFQDLPTRHKIRELTSSRIGLLTRISGQVVRTHPVHPELVSGTFLCLDCQTVIKDVEQQFKYTQPNICRNPVCANRKRFLLDTNKSRFVDFQKVRIQETQAELPRGSIPRSLEVILRAEAVESAQAGDRCDFTGALIVVPDVSKLSTPGARAETNSRVSGADGYETEGIRGLRALGVRDLSYRLVFLACHVAPTNPRFGGKELRDEEQTAESIKNQMTVKEWEKVFEMSQDKNLYHNLCTSLFPTIHGNDEVKRGVLLMLFGGVPKTTGEGTSLRGDINVCIVGDPSTAKSQFLKHVDEFSPRAVYTSGKASSAAGLTAAVVRDEESHEFVIEAGALMLADNGVCCIDEFDKMDMRDQVAIHEAMEQQTISITKAGVKATLNARTSILAAANPVSGHYDRSKSLKQNINLSAPIMSRFDLFFILVDECNEVTDYAIARRIVDLHSRIEESIDRVYSLDDIRRYLLFARQFKPKISKESEDFIVEQYKRLRQRDGSGVTKSSWRITVRQLESMIRLSESMARMHCCDEVQPKHVKEAFRLLNKSIIRVETPDVNLDQEEEIQMETDEGQGGVNGHADSPAPVNRFNGSSEDASQETVSKPSLRLGFAEYCRISNLIVLHLRKMEEEEDESALKRSELVNWYLKEIESEIDSEEELINKKTIIEKVVHRLTHYDHVLIELTQAGLKGSSEGSESYEEDPYLVVNPNYLLED
–	binds	binds	MCM4 (protein, UniProt P49717 1-862) MSSPASTPSRRSSRRGRVTPTQSLRSEESRSSPNRRRRGEDSSTGELLPMPTSPGADLQSPPAQNALFSSPPQMHSLAIPLDFDVSSPLTYGTPSSRVEGTPRSGVRGTPVRQRPDLGSARKGLQVDLQSDGAAAEDIVPSEQSLGQKLVIWGTDVNVATCKENFQRFLQCFTDPLAKEEENVGIDITQPLYMQQLGEINITGEPFLNVNCEHIKSFSKNLYRQLISYPQEVIPTFDMAVNEIFFDRYPDSILEHQIQVRPFNALKTKSMRNLNPEDIDQLITISGMVIRTSQLIPEMQEAFFQCQVCAHTTRVEIDRGRIAEPCSCVHCHTTHSMALIHNRSFFSDKQMIKLQESPEDMPAGQTPHTIVLFAHNDLVDKVQPGDRVNVTGIYRAVPIRVNPRVSNVKSVYKTHIDVIHYRKTDAKRLHGLDEEAEQKLFSEKRVKLLKELSRKPDIYERLASALAPSIYEHEDIKKGILLQLFGGTRKDFSHTGRGKFRAEINILLCGDPGTSKSQLLQYVYNLVPRGQYTSGKGSSAVGLTAYVMKDPETRQLVLQTGALVLSDNGICCIDEFDKMNESTRSVLHEVMEQQTLSIAKAGIICQLNARTSVLAAANPIESQWNPKKTTIENIQLPHTLLSRFDLIFLMLDPQDEAYDRRLAHHLVSLYYQSEEQVEEEFLDMAVLKDYIAYAHSTIMPRLSEEASQALIEAYVNMRKIGSSRGMVSAYPRQLESLIRLAEAHAKVRFSNKVEAIDVEEAKRLHREALKQSATDPRTGIVDISILTTGMSATSRKRKEELAEALRKLILSKGKTPALKYQQLFEDIRGQSDTAITKDMFEEALRALADDDFLTVTGKTVRLL

Source: article PMC11112163
